The record followed here is US20240148684A1, “COMPOUNDS AND METHODS FOR TREATING CONGENITAL ERYTHROPOIETIC PORPHYRIA” (RUTGERS, THE STATE UNIVERSITY OF NEW JERSEY, priority 2021, published 2024).

The data set in a line: In vitro binding of porphyrins to hydroxyapatite. To be noted: 1 mM porphyrin, 10 mg hydroxyapatite, 30 min in the dark.

Molecules are shown by their SMILES. Structures can show the parent of a compound that is named as a salt.

In the case of `CC1=C(CCC(=O)O)c2cc3nc(cc4[nH]c(cc5[nH]c(cc1n2)c(CCC(=O)O)c5C)c(CCC(=O)O)c4C)C(CCC(=O)O)=C3C` [copro-I, coproporphyrin-I dihydrochloride], the binding to hydroxyapatite result is “not”.
The entry for `Cl.Cl.O=C(O)CCC1=C(CC(=O)O)c2cc3nc(cc4[nH]c(cc5[nH]c(cc1n2)c(CC(=O)O)c5CCC(=O)O)c(CC(=O)O)c4CCC(=O)O)C(CC(=O)O)=C3CCC(=O)O` [Uro-I, uroporphyrin-I dihydrochloride] is “bound to hydroxyapatite”.
